According to PMC3745420:
These are yes or no findings as the source states them, for the method shown. For some assays here: Binding seen in cells or lysates may run through a third protein. Some binding calls cover weakened binding; strength is not graded here.

Chains of the proteins cited; added tags and fusions are not shown. Lines headed by an entry give the natural chain unless they say otherwise; changes in a name come on top. Residues count along the entry.
UniProt O60563: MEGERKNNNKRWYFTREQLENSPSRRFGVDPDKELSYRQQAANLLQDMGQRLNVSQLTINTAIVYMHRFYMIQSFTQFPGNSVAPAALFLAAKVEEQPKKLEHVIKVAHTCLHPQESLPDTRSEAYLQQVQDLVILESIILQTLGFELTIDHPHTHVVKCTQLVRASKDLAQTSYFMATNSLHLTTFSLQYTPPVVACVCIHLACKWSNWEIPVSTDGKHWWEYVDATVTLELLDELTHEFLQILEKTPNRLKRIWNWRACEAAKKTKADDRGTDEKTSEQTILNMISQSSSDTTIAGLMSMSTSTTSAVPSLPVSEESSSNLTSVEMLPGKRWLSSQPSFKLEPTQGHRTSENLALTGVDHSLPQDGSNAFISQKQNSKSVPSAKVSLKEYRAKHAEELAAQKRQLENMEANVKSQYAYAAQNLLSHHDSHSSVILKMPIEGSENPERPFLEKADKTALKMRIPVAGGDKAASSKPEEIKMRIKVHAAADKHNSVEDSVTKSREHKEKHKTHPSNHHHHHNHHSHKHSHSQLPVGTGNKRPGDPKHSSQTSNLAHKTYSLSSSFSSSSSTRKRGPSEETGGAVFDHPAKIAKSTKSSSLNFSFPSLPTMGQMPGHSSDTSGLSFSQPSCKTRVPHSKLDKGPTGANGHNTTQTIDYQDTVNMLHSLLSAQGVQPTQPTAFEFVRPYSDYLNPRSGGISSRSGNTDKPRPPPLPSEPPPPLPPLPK
GST-cyclin T1 (481-630): residues 481-630 of O60563
UniProt P50750: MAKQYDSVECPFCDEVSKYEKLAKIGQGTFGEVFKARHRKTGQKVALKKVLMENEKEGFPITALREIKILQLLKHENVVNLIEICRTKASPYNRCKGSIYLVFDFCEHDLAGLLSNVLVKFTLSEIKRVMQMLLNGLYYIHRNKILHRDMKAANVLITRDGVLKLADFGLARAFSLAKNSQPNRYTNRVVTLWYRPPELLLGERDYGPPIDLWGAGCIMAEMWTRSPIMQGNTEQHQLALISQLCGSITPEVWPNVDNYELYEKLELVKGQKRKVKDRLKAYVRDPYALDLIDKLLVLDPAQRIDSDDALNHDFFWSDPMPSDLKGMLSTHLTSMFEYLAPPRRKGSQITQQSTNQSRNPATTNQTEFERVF

What was measured:
[1] = biological target: GST-cyclin T1 (481-630) (human) (UniProt O60563); assay: pull-down; GST pull-down; purified His-Plk1 incubated with GST-tagged protein immobilized on Sepharose 4B-glutathione beads, 4 °C, 1 h, washed with lysis buffer; bound protein detected with Plk1 antibody; both purified
[2] = biological target: GST-cyclin T1 (human) (UniProt O60563); assay: as above
[3] = biological target: GST-Cdk9 (human) (UniProt P50750); assay: as above
[4] = biological target: GST-Plk1 polo-box domain (PBD) (330-603) (UniProt P53350); assay: pull-down; GST pull-down; 293T cell lysate incubated with immobilized GST-Plk1 PBD or GST-Plk1 PBD H538A/K540A, 4 °C, 1 h; immunoblotting with Cdk9 and cyclin T1 antibodies; only the target purified
[5] = biological target: GST-Plk1 PBD H538A/K540A (UniProt P53350); assay: as above
[6] = biological target: FLAG-Plk1(1-330) (UniProt P53350); assay: co-IP; 293T cells transfected with pCMV FLAG-Plk1, its KD (K82R) or deletion mutants; extracts immunoprecipitated with FLAG antibody beads, immunoblotted with Cdk9 and cyclin T1 antibodies (endogenous); lysis buffer 50 mM TrisCl pH 8.0, 150 mM NaCl, 0.5% Triton X-100, 4 °C
[7] = biological target: FLAG-Plk1(330-603) (UniProt P53350); assay: as above
[8] = biological target: FLAG-Plk1 KD (K82R), kinase-defective mutant (UniProt P53350); assay: as above
[9] = biological target: FLAG-Plk1 (polo-like kinase 1) (UniProt P53350); assay: as above
[10] = biological target: endogenous Plk1 (HeLa) (human (endogenous in HeLa)) (UniProt P53350); assay: co-IP; endogenous proteins; HeLa cells synchronized in M phase by Nocodazole; lysates immunoprecipitated with Plk1 antibody (normal mouse serum as control), immunoblotted with Cdk9, cyclin T1 and Plk1 antibodies
[11] = biological target: myc-Plk1 (polo-like kinase 1) (UniProt P53350); assay: co-IP; 293T cells co-transfected with pCMV myc-Plk1 and pCMV FLAG-Cdk7 or FLAG-Cdk9; total cell extracts immunoprecipitated with myc antibody, immunoblotted with FLAG antibody; lysis buffer 50 mM TrisCl pH 8.0, 150 mM NaCl, 0.5% Triton X-100, 4 °C

His-tagged Plk1 (from UniProt P53350 1-603) (enzyme)
binding [1]: binds
binding [2]: binds
binding [3]: binds

endogenous Cdk9 (293T) (from UniProt P50750 1-372) (enzyme)
binding [4]: binds
binding [5]: binds
binding [6]: binds weakly
binding [7]: binds
binding [8]: binds
binding [9]: binds

endogenous Cdk9 (HeLa) (from UniProt P50750 1-372) (enzyme)
binding [10]: binds

FLAG-Cdk9 (from UniProt P50750 1-372) (enzyme)
binding [11]: binds
